From PubChem BioAssay AID2685 (National Center for Advancing Translational Sciences (NCATS), 2010)
The whole screen tested about 320,000 compounds, of which about 2,100 (0.66%) were called active. Inconclusive results, whose numbers are uncertain, are shown with a selection of clear calls. The call rests on the fitted dose curve; in most records, active means well fitted inhibition curve with a large enough effect in the signal ratio, with a control signal flat (not every such curve was filed as active); inconclusive means small, poorly fitted or top-dose-only effect, or effect the other way, or a change in a side signal; inactive means flat fitted curve, though single readings scatter; the % refers to the signal ratio. Potencies of inconclusive entries are doubtful fits and often do not repeat.

Assay: qHTS Assay for Lipid Storage Modulators in Drosophila S3 Cells
Settings: BODIPY lipid droplet fluorescence, 18-24 h, cells fed with added oleic acid; lipid storage change, negative = inhibition: at 46.1 µM (top of the series) unless noted
Outline: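 Laser-scanning cytometry quantifies lipid droplet accumulation (500–530 nm total intensity; droplet/cell object ratio) in oleic acid-fed (400 uM added) Drosophila S3 cells treated with a concentration series. 20 uM Triacsin C defined 100% inhibition.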
On the % scale 0 is the no-effect control and ±100 the full control effect; potency means the concentration at half of the fitted maximal effect.

Compound | lipid storage change, negative = inhibition | Potency
C=CCNC(=S)NNC(=O)COc1ccc2cc(Br)ccc2c1 | inconclusive: -21.4% | –
O=C(Nc1cccc(C(F)(F)F)c1)Oc1ccc(Cl)c2cccnc12 | – | active: 8.2 µM
Cc1ccccc1C(=O)OC(C)C(=O)NCc1ccc2c(c1)OCO2 (centres undefined) | – | inconclusive: 2.59 µM [activator, partial curve]
CC(NC(=O)/C(C#N)=C/c1ccc(N2CCOCC2)cc1)c1ccccc1 (centres undefined) | – | inconclusive: 0.58 µM [activator, single point]
Cn1ncc2c(NNC(=O)Cc3cccc4ccccc34)ncnc21 | inconclusive: -25.5% | –
O=C(COC(=O)/C=C/c1cccs1)NC1CC1 | inconclusive: -3.62% | –
Cn1cc(S(=O)(=O)NCCc2ccccc2)c(=O)n(C)c1=O | – | inconclusive: 0.103 µM [falling, full curve, poor fit]
CCn1c(CN2CCOCC2)nnc1SCC(=O)Nc1ccc(C)cc1 | inconclusive: 23.4% | –
COc1ccc(NC(=O)CCN2C(=O)C3C4C=CC(C4)C3C2=O)cc1 (centres undefined) | inconclusive: 92% | –
O=C1c2ccccc2S(=O)(=O)N1Cc1ccccc1[N+](=O)[O-] | inconclusive: 11.3% | –
O=C(Cn1c(=S)[nH]c2ccccc2c1=O)N1CCc2ccccc2C1 | inconclusive: 12.6% | –
COc1ccc(-c2cc(C(=O)NCc3ccc(Cl)cc3)no2)cc1OC | inconclusive: 17.8% | –
O=C(CN1C(=O)C2CC=CCC2C1=O)Nc1ccc(S(=O)(=O)Nc2nccs2)cc1 (centres undefined) | inconclusive: -19.3% | –
Cc1nc(CS(=O)(=O)c2ccccc2)cc(Sc2ccccc2Cl)n1 | inconclusive: 43.1% | –
COc1cccc(/C=N/NC(=S)Nc2cccc(S(=O)(=O)N(C)C)c2)c1 | inconclusive: 15.9% | –
CCN(CC(=O)N1CCN(Cc2ccccc2)CC1)S(=O)(=O)c1ccc(C)cc1 | – | inconclusive: 29.1 µM [activator, single point]
CC(C)Sc1nc2ncnc(N)c2[nH]1 | inconclusive: 1.25% | –
COc1ccc(NC(=O)C(NC(=O)OC(C)(C)C)C(C)OCc2ccccc2)cc1 (centres undefined) | – | inconclusive: 20.6 µM [falling, single point]
O=C(c1cccs1)N1CCN(Cc2cccnc2)CC1 | – | inconclusive: 29.1 µM [activator, single point]
O=C1c2ccccc2C(=O)N1Cc1nc2ccccc2o1 | inconclusive: 40.7% | –
CCOC(=O)c1ccc(NC(=O)C2CC(=O)N=C(N)S2)cc1 (centres undefined) | inconclusive: 16.9% | –
O=C(Cn1c(=O)n(-c2cccc(C(F)(F)F)c2)c(=O)c2sccc21)NCC1CCCO1 (centres undefined) | inconclusive: -12.4% | –
Cc1cc(C)n(Cc2cccc(C(=O)N/N=C/c3cccnc3)c2)n1 | – | inconclusive: 0.13 µM [activator, full curve, poor fit]
CCC(=O)Nc1ccc(C(=O)Nc2ccc3c(c2)C(=O)N(CC2CCCO2)C3=O)cc1 (centres undefined) | inconclusive: -18.7% | –
CC(C)CC(=O)Nc1ccnc(-c2ccncc2)n1 | inconclusive: 14.7% | –

Compound | lipid storage change, negative = inhibition | Potency
COC(=O)c1ccc(C(NC(=O)OCc2ccccc2)/C(F)=C/[C@@H](C)C(=O)NCc2ccc(-c3ccccc3)cc2)cc1 (some centres undefined) | inconclusive: 45.6% | –
COc1cccc(N(CC(=O)Nc2cccc(C(C)=O)c2)S(C)(=O)=O)c1 | – | inconclusive: 11.6 µM [activator, partial curve, poor fit]
CCOC(=O)N1CCN(S(=O)(=O)N2CCCC(C(=O)NCc3cccc(OC)c3)C2)CC1 (centres undefined) | inconclusive: 103% | –
C/[N+]([O-])=C1\Cc2ccccc2C1=O | – | inconclusive: 4.11 µM [falling, single point]
CN(C)c1ccc(C(=O)OCC(=O)N2CCCC2)cc1 | inconclusive: 250% | –
CCCn1c(=O)c(C(=O)Nc2ncccc2O)c(O)c2ccccc21 | – | inconclusive: 1.3 µM [activator, full curve]
c1ccc(Oc2cccc(CN3CCOCC3)c2)cc1 | – | inconclusive: 32.6 µM [activator, partial curve]
CC(=O)c1ccc(Nc2nc(-c3cccnc3)cs2)cc1 | – | inconclusive: 29.1 µM [activator, single point]
COc1ccccc1N(Cc1ccccc1)S(=O)(=O)c1cccc(C(=O)NCC2CCCO2)c1 (centres undefined) | – | inconclusive: 0.103 µM [falling, single point]
COc1ccc(CCNC(=S)NC(=O)c2cccc([N+](=O)[O-])c2)cc1OC | inconclusive: -12.5% | –
CCN(CC)S(=O)(=O)c1ccc(N2CCOCC2)c(C(=O)O)c1 | – | inconclusive: 0.82 µM [falling, single point]
O=C(CSc1nc2nn(-c3ccccc3)c(=O)c-2c2n1CCCCC2)c1ccc(O)c(O)c1 | inconclusive: 1.13% | –
NCCCNc1nc(N)c([N+](=O)[O-])c(NC2CCCCC2)n1 | inconclusive: 24.9% | –
O=C(CN(Cc1ccccc1)S(=O)(=O)c1ccccc1)N/N=C/c1ccc([N+](=O)[O-])cc1 | inactive: 13.5% | –
Cc1ccc(C2CC(=O)C=C(NCc3ccccc3)C2)cc1 (centres undefined) | – | inconclusive: 0.146 µM [falling, full curve, poor fit]
CCCn1c(CCC(=O)O)ccc1-c1ccccc1 | inconclusive: -0.234% | –
CSCCC(NS(=O)(=O)c1ccc(Cl)cc1)C(=O)OCC(=O)NC1CCCCC1 (centres undefined) | inconclusive: 0.194% | –
COc1ccc(S(=O)CC(=O)Nc2ccccc2Cl)cc1 (centres undefined) | – | inconclusive: 5.8 µM [falling, single point]
O=C(COC(=O)/C=C/c1cccc(C(F)(F)F)c1)NCCN1C(=O)CSC1=O | inconclusive: 2.47% | –
O=C(COc1ccc(Cl)cc1)NCCCNC(=O)c1cnccn1 | – | inconclusive: 25.9 µM [activator, single point]
O=C(CC1(O)C(=O)Nc2ccccc21)c1ccc2c(c1)OCO2 (centres undefined) | inconclusive: 18.9% | –
CC1CCN(CCCNC(=O)c2cn(C)c3ccc(S(=O)(=O)N4CCCC4)cc3c2=O)CC1 | – | inconclusive: 29.1 µM [falling, single point]
COCCCNCCOCCOc1c(OC)cccc1OC | inconclusive: 7.58% | –
COC(=O)c1[nH]c2ccc(C)cc2c1NC(=O)c1ccccc1[N+](=O)[O-] | – | inconclusive: 29.1 µM [rising, single point]
CN(C)C1=NC[C@H](Cc2ccccc2)N1CC1CCCCC1 | – | inconclusive: 13 µM [activator, partial curve]

Compound | lipid storage change, negative = inhibition | Potency
O=C(O)c1ccnc2c(O)cccc12 | inconclusive: 5.62% | –
COCC(C)NC(=O)c1cc(-c2ccccc2OC)on1 (centres undefined) | inconclusive: 12.9% | –
CCOC(=O)c1ncn2c1CN(C)C(=O)c1cc(F)ccc1-2 | inconclusive: 4.06% | –
Cc1cccc(NC(=O)NC2CCCCCCC2)c1 | – | inconclusive: 29.1 µM [falling, single point]
Cc1cc(C)cc(NC(=O)c2cc(S(=O)(=O)N3CCCC3)cn2C)c1 | inconclusive: -45.4% | –
CC(C)N(C(=O)CC1ON(C)C(=O)N1c1ccc(Cl)cc1)C(C)C (centres undefined) | inconclusive: 16.1% | –
CCOC(=O)c1[nH]c2ccc(OCC)cc2c1NC(=O)CN1CCN(c2ccccn2)CC1 | – | inconclusive: 29.1 µM [activator, partial curve, poor fit]
CCOC(=O)N1CCN(C(=O)CCn2nc(-c3ccc(Cl)cc3)ccc2=O)CC1 | inconclusive: -21.8% | –
COc1ccc2c(c1)oc(=O)c1c3ccccc3[nH]c21 | inconclusive: 5.75% | –
C#CCOC(=O)Nc1cccn(Cc2c(Cl)cccc2Cl)c1=O | inconclusive: 9.83% | –
Cc1ccc(NC(=S)N(CCCN2CCOCC2)Cc2ccccn2)cc1 | inconclusive: 189% | –
COc1ccc(-c2cc3cc(C(=O)O)ccn3c2C(=O)c2ccccc2)cc1 | inactive: -4.15% | –
Nc1c(N(Cc2ccco2)C(=O)c2ccccc2F)c(=O)[nH]c(=O)n1Cc1ccccc1 | inconclusive: -20.7% | –
Cc1ccccc1OCC(=O)NC(=S)Nc1ccc(N2CCOCC2)c(Cl)c1 | inconclusive: -17.1% | –
FC(F)(F)c1cccc(CN2CCCCCC2)c1 | inconclusive: -20.5% | –
C#CCOCCOCCOCCNc1nc(N2CCN(C(=O)Cn3cc(CCCCN)nn3)CC2)nc(N2CCN(C(=O)[C@H]([C@@H](C)CC)n3cc(CCCCN)nn3)CC2)n1 | inconclusive: 33.1% | –
Cc1ccc(NC(=O)COC(=O)[C@@H]2CCCN2C(=O)c2cccs2)cc1S(=O)(=O)N(C)C | inconclusive: -12.4% | –
CCc1nnc(NC(=O)Cc2cc(OC)c(OC)c(OC)c2)s1 | – | inconclusive: 2.59 µM [rising, partial curve, poor fit]
Cc1ccc(C)c(S(=O)(=O)N2CCCOC2CNC(=O)C(=O)NCc2cccnc2)c1 (centres undefined) | – | inconclusive: 0.116 µM [falling, partial curve, poor fit]
COc1ccc(NC(=O)CC2C(=O)N(c3ccc(Cl)cc3)C(=S)N2NC(=O)c2cccc(F)c2)cc1 (centres undefined) | inconclusive: 11.5% | –
CCOc1nc(-c2ccc(OC)cc2)ccc1-c1noc(C)n1 | – | inconclusive: 4.11 µM [rising, full curve]
Cc1ccc(CNC(=O)Cn2c(=O)c3sccc3n(Cc3ccc([N+](=O)[O-])cc3)c2=O)cc1 | inconclusive: -46.3% | –
O=c1c2ccccc2nc(SCc2cccc(F)c2)n1Cc1ccco1 | – | inconclusive: 11.6 µM [rising, partial curve]
Cc1ccc(Cc2c(C)nc3nc(SCC(=O)NCCCN4CCCCCC4)nn3c2C)cc1 | – | inconclusive: 29.1 µM [rising, single point]

3 structures from above, arranged by SMILES length, high to low.
Compound | lipid storage change, negative = inhibition | Potency
Cc1ccc(CNC(=O)Cn2c(=O)c3sccc3n(Cc3ccc([N+](=O)[O-])cc3)c2=O)cc1 | inconclusive: -46.3% | –
CC(C)N(C(=O)CC1ON(C)C(=O)N1c1ccc(Cl)cc1)C(C)C (centres undefined) | inconclusive: 16.1% | –
COc1ccc2c(c1)oc(=O)c1c3ccccc3[nH]c21 | inconclusive: 5.75% | –
